# Laboratory results from patent US20080181971A1, “Combination Cancer Treatments Comprising Elsamitrucin and Other Agents” (priority 2007, published 2008).
# Values joined by “and” are separate entries in the source; they are usually repeats but may differ in a detail not shown here. Equal entries are not always repeated. At least one read-out could not be matched to a standard name with certainty.
# Assays:
# [1] = test system: HT29 human colon carcinoma cell line; assay: MTT growth inhibition assay, single agents and fixed-ratio combinations with elsamitrucin (Chou-Talalay, CalcuSyn), HT29; type: cell-based; conditions: HT29, single agent on the same plate as the combination; read-out: Dm Value, Individually, Second Agent
# Description: (§1) These individual agents and their combinations were evaluated for in vitro activity against the HT29 colon carcinoma, SKMES non-small cell lung carcinoma, and Daudi B-lymphoblastic cell lines. Cell growth in 96-well microculture plates was determined with a semi-automated MTT assay. Efficacies of drug combinations were analyzed according to the methods of Chou and Talalay, utilizing CalcuSyn software. Twenty-one in vitro experiments were conducted to determine the individual and combined growth inhibitory activities of elsamitrucin and the ten selected agents in the three cell lines.
# (§2) b. Cell Lines. The human HT29 colon carcinoma, SKMES non-small cell lung carcinoma, and Daudi B-lymphoblastic cell lines were originally obtained from ATCC (American Type Culture Collection). These cell lines have been maintained and stored as frozen stocks. […]
# (§3) c. […] Anti-proliferative activities against the HT29, SKMES, and Daudi cell lines were evaluated in vitro by the MTT assay. […]
# (§4) For assays that utilized lower dilution factors to produce narrower concentration ranges, the results were analyzed with both Prism and CalcuSyn (as described below) to allow comparison of the IC50 and Da, values. […]
# (§5) e. […] The effects of the individual drugs and their combinations were analyzed by the method of Chou and Talalay. […]
# (§6) where Acontrol and Adrug are the respective absorbances of vehicle control and drug-treated wells in the MIT assay. […]
# [2] = test system: SKMES human non-small cell lung carcinoma cell line; assay: MTT growth inhibition assay, single agents and fixed-ratio combinations with elsamitrucin (Chou-Talalay, CalcuSyn), SKMES; type: cell-based; conditions: second agent alone, one value per plate (Experiment ID), read-out: Dm Value (95% Confidence Interval), Individually, Second Agent
# Description: as §1, §2, §3, §4, §5, §6
Structure (SMILES),IC50 [1],IC50 [2] [µM]
"COc1cccc2c1C(=O)c1c(O)c3c(c(O)c1C2=O)C[C@@](O)(C(=O)CO)C[C@@H]3O[C@H]1C[C@H](N)[C@H](O)[C@H](C)O1 [Doxorubicin, doxorubicin]",0.022 µM and 0.035 µM,–
"O=NN(CCCl)C(=O)NCCCl [Carmustine, carmustine]",123 µM and 56.5 µM and 177 µM,–
"CC(C)C[C@H](NC(=O)[C@H](Cc1ccccc1)NC(=O)c1cnccn1)B(O)O [Bortezomib, bortezomib]",–,0.013
